Some of the results follow. These are further read-outs of the screen, such as a control signal, another cell line or another target. No call is given for them. The list favours compounds with an active or inconclusive main result. The note in brackets gives the kind of curve behind each potency; many fits are weak.

This is an account of results in PubChem BioAssay AID1487 (National Center for Advancing Translational Sciences (NCATS), 2009).

The test is described as follows: qHTS Assay for Modulators of Lamin A Splicing. As to conditions: HeLa LMNA splicing GFP/RFP minigene ratio, 48 h. The gist of the method: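 S3 HeLa stable clones carrying a lamin A-EGFP splicing minigene plus DsRed2 were seeded at 600 cells/well in Opti-MEM with 2% FBS, pin-dosed and incubated 48 h at 37°C. Acumen cytometry (488 nm) gave the GFP/RFP total-intensity ratio.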
On the technique in general: qHTS replaces the single test concentration by a dilution series.

The mark [1] stands for this setting: measured here: RFP viability control channel.
Where [2] appears, read: measured here: GFP splicing reporter channel.

In the case of `COc1ccccc1NS(=O)(=O)c1ccc2oc(SCc3ccc(C#N)cc3)nc2c1`, the AC50 (as a rule, the concentration at which the activity in the assay is half-maximal) under setting [1] is 12.6 µM [rising, partial curve].
`Cc1nc(N2CCN(C(=O)c3ccco3)CC2)c2c3c(sc2n1)CCC3`: the AC50 was 35.5 µM [rising, single point] under setting [2] and 35.5 µM [rising, single point] under setting [1].
With `O=S(=O)(c1ccccc1)c1cccc(S(=O)(=O)N2CCCCC2)c1`, the AC50 under setting [1] was 31.6 µM [rising, single point].
For `Nc1c(C(=O)NCc2ccco2)sc2nc(N3CCOCC3)c3c(c12)CCCC3`, the AC50 under setting [2] is 35.5 µM [rising, single point] and the AC50 under setting [1] is 35.5 µM [rising, single point].
As to `CCC(C)(C)NC(=O)C(c1ccccc1F)N(Cc1ccco1)C(=O)Cn1nnc2ccccc21` (stereo not drawn), the AC50 was 7.94 µM [rising, partial curve] under setting [2] and 7.08 µM [rising, partial curve, poor fit] under setting [1].
As to `N#CC1=C(N)NC(SCc2ccc(Cl)cc2)=C(C#N)C12CCCCC2`, the AC50 was 12.6 µM [rising, partial curve] under setting [2] and 22.4 µM [rising, partial curve] under setting [1].
In the case of `CC(C)(C)c1cc(C(=O)Nc2ccccc2)ccn1`, the AC50 under setting [1] is 15.8 µM [rising, partial curve].
As to `Cc1nn2c(NCCCN3CCOCC3)c3c(nc2c1-c1ccccc1)CCC3`, the AC50 by setting is: under setting [2], 0.316 µM [rising, full curve]; under setting [1], 0.316 µM [rising, full curve].
Take `COc1ccccc1Nc1ncc2c(n1)CCN(CC(C)C)C2`: the AC50 under setting [1] was 12.6 µM [rising, partial curve].
For the molecule `COc1cccc(Nc2nc(-c3cccs3)nc3ccccc23)c1`, the AC50 by setting is: under setting [2], 20 µM [rising, single point]; under setting [1], 28.2 µM [rising, single point].
For the molecule `Cc1cccc(COCC(Cc2ccccc2)N2CCN(C(=O)c3cccc(C)c3)CCC2=O)c1` (stereo not drawn), under setting [1], the AC50 is 10 µM [rising, partial curve, poor fit].
Turning to `NS(=O)(=O)c1cc(Cl)c(Cl)c(S(N)(=O)=O)c1`, the AC50 by setting is: under setting [2], 0.00447 µM [falling, full curve, poor fit]; under setting [1], 0.355 µM [falling, partial curve].
In the case of `COc1ccc(NC(=O)C2CCN(c3nc4ccccc4[nH]3)CC2)cc1OC`, the AC50 under setting [1] is 0.0282 µM [falling, full curve, poor fit].
Same read-out and setting: the result for `C=CCN(CC=C)C(=S)NC(=O)c1ccc(-c2ccccc2)cc1` reads 31.6 µM [rising, single point].
For the molecule `COc1ccc(OC)c(NC(=O)Nc2cccc(OCc3cc(=O)n4cc(C)ccc4n3)c2)c1`, the AC50 under setting [2] was 0.0224 µM [falling, full curve, poor fit] and the AC50 under setting [1] was 0.0251 µM [falling, full curve, poor fit].
